According to PMC9993039 (Royal Society Open Science, 2023):

Test: general procedure: Fmoc solid-phase peptide synthesis; 2-chlorotrityl chloride resin (1.5 mmol g^-1 loading capacity); HBTU/DIPEA
Conditions: whole synthesis
[1] = scale of the general procedure 0.10 mmol

Row | Substance | isolated mass (scale 0.10 mmol) [mg] | isolated yield (scale 0.10 mmol) [%] | final purity (method not given) [1] | isolated mass [mg] | isolated yield [1] [%]
1 | EuK(2-Nal-Trx-Lys[Gly-Tyr-Lys(DOTA)]-Glu-4-p-IPBA) | 19 | 10 | greater than 95% | – | –
2 | EuK(2-Nal-Trx-Lys[Met-Val-Lys(DOTA)]-Glu-4-p-IPBA) | – | – | greater than 95% | 12 | 5.8
